# From PMC3534055
# Amino acid sequences for entries named in this document (tags omitted). A change or cut given only in a name is not applied to a line headed by its entry. Chains listed by the source or under a name are the forms on record and can include a tag or linker. Residues count along the entry.
# Fms-like tyrosine kinase 3 (Flt3), wild type (P36888, residues 27-993): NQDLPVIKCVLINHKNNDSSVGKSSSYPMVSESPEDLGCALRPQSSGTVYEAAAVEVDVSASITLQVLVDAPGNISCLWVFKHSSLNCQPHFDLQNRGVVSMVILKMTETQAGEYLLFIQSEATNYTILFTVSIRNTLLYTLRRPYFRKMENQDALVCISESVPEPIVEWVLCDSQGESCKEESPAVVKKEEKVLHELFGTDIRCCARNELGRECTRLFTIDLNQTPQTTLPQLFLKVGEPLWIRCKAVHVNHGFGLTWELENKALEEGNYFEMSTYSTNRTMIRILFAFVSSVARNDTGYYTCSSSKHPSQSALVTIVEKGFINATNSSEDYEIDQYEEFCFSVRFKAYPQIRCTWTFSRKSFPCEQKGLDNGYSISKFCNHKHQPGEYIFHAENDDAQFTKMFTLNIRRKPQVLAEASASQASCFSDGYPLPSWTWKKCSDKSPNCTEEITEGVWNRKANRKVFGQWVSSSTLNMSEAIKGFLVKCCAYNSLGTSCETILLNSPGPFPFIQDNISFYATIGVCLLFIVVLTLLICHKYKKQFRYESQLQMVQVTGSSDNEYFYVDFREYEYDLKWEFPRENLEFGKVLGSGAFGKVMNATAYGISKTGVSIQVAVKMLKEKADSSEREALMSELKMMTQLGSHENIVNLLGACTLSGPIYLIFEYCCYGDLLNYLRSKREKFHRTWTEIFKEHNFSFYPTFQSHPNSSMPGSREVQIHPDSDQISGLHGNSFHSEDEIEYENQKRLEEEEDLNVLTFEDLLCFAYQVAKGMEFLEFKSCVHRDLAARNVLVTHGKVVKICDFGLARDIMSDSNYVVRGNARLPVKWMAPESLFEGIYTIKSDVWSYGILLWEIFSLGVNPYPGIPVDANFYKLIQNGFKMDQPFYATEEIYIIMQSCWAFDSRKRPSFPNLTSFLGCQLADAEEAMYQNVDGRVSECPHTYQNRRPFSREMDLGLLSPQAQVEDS
# Flt3-Y589F/Y591F/Y599F (P36888, form named): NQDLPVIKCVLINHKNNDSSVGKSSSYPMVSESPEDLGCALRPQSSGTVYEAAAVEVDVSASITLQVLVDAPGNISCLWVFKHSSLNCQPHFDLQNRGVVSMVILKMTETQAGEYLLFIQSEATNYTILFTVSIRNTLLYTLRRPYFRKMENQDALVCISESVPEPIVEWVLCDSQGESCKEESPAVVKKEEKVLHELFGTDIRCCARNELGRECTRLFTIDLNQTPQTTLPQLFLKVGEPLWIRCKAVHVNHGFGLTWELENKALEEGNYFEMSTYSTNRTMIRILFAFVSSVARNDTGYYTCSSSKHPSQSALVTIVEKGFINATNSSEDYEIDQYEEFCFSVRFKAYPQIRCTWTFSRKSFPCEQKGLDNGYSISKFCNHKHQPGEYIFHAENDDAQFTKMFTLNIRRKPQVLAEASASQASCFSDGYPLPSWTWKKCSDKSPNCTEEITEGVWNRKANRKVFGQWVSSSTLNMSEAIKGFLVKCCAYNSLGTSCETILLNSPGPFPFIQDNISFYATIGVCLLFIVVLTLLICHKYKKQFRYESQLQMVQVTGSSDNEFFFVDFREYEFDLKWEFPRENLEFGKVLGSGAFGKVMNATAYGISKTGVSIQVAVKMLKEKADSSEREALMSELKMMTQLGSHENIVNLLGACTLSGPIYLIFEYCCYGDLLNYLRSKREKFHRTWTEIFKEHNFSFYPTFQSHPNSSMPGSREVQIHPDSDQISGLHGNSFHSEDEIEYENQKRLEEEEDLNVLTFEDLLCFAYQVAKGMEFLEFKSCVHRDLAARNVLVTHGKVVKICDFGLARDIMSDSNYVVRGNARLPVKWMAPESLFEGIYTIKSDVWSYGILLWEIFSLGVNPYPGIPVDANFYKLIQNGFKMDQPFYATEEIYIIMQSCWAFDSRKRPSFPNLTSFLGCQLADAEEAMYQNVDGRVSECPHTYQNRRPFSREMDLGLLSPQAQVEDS
# Results are given in words; binding and its absence hold for the method and conditions named. Binding seen in cells or lysates may run through a third protein. Some binding calls cover weakened binding; strength is not graded here. Tags and fused reporters may be left off the sequences shown.
# Target: T1, Src-like adaptor protein (SLAP), FLAG-tagged (UniProt Q13239)
# T1 sequence: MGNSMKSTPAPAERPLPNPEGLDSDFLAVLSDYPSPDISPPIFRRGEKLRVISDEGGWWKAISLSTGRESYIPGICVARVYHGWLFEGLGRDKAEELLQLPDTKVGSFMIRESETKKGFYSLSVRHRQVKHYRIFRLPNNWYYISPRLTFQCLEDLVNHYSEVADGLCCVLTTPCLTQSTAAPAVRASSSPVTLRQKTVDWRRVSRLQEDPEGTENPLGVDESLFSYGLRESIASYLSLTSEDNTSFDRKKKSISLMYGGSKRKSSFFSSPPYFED
# Assay: co-IP; COS-1 cells co-transfected with SLAP-FLAG and Flt3 constructs, serum-starved overnight, stimulated with 100 ng/ml FL or not (5 min, or a time course up to 2 hours); 1% Triton X100 lysates immunoprecipitated with anti-FLAG or anti-Flt3 antibody, Western blotting
row,Substance,binding
1,Flt3-Y589F/Y591F/Y599F (from UniProt P36888 27-993) (receptor),binds
2,"Fms-like tyrosine kinase 3 (Flt3), wild type (from UniProt P36888 27-993) (receptor)",binds
